Assay results: PubChem BioAssay AID2685 (National Center for Advancing Translational Sciences (NCATS), 2010)
Some of the results follow. Shown are side measurements of this screen, not its main read-out; they come without a call. The list favours compounds with an active or inconclusive main result. Potencies come from curve fits of mixed quality, noted in brackets.

Experiment: qHTS Assay for Lipid Storage Modulators in Drosophila S3 Cells;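 for cell number change: cells counted by Cell Tracker Red CMTPX staining in the red channel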
Conditions: BODIPY lipid droplet fluorescence, 18-24 h; for cell number change: measured here: cell count max response, cells fed with added oleic acid
Procedure, shortened: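 Laser-scanning cytometry quantifies lipid droplet accumulation (500–530 nm total intensity; droplet/cell object ratio) in oleic acid-fed (400 uM added) Drosophila S3 cells treated with a concentration series. 20 uM Triacsin C defined 100% inhibition.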

[1] = measured here: lipid fluorescence (Fed channel) AC50, cells fed with added oleic acid
[2] = measured here: cell number channel AC50, cells fed with added oleic acid

Which cell number change does the source give for `Cn1c(CCN2CCOCC2)nc2cc(NS(=O)(=O)c3ccccc3)ccc21` here?
The cell number change was -21.9%.

Which cell number change does the source give for `CCc1ccc(NC(=O)C(C)OC(=O)C2CCN(c3ccc(C(F)(F)F)cn3)CC2)cc1` (configuration not stated) here?
Its cell number change is -23.7%.

For `COc1ccc(-n2c(C)nc3cc(C(=O)NCc4ccc5c(c4)OCO5)ccc32)cc1`, which cell number change is on record?
The cell number change was 7.38%.

Which AC50 [1] does the source give for `CCCc1cc(C(=O)Nc2cccc([N+](=O)[O-])c2)cs1` here?
Its AC50 is 17.8 µM [falling, single point].

For `COc1cc2c(cc1OC)C1OC(c3ccsc3)(C2)Oc2cc(C)oc(=O)c21` (configuration not stated), which cell number change is on record?
Its cell number change is -27.1%.

What about the AC50 [1] of the same compound?
The AC50 was 0.00473 µM [falling, full curve, poor fit].

With `Cc1ccc2c(CN(C)Cc3ccc(Cl)cc3Cl)cc(=O)oc2c1` as the compound, how does the cell number change read?
The cell number change was 5.13%.

Which cell number change does the source give for `COc1ccc2nc(COC(=O)c3cccc([N+](=O)[O-])c3)c(C(C)=O)[n+]([O-])c2c1` here?
The cell number change was 23.7%.

What about the AC50 [1] of the same compound?
Its AC50 is 0.291 µM [rising, full curve].

For `CCCc1cc(C(=O)N/N=C/c2ccc(C)o2)c2ccccc2n1`, which cell number change is on record?
The cell number change was -32.3%.

And the AC50 [2]?
The AC50 was 0.231 µM [falling, full curve, poor fit].

And the AC50 [1]?
Its AC50 is 1.64 µM [falling, full curve, poor fit].

With `COc1ccc(-n2c(Cc3cc(=O)[nH]c(=O)[nH]3)nnc2SCC(=O)Nc2ccccc2)cc1` as the compound, how does the cell number change read?
Its cell number change is 2.41%.

For `COC(=O)c1sc(S(=O)(=O)N2CCN(c3ccccc3)CC2)c(C(=O)OC)c1C`, which AC50 [1] is on record?
The AC50 was 0.58 µM [falling, single point].

What does the source list for `CCCCCCSc1nsc(N)n1`?
cell number change: -29.2%; AC50 [1]: 6.51 µM [rising, single point]

Which results are given for `COc1ccc(S(=O)(=O)NC2CC3CCC2C3)cc1` (configuration not stated)?
cell number change: 23.7%; AC50 [1]: 29.1 µM [rising, single point]

For `N#C/C(=C\c1ccccc1)C(=O)NC(=O)Oc1ccccc1`, which AC50 [1] is on record?
Its AC50 is 2.59 µM [falling, full curve].

For `O=C(COC(=O)c1ccccn1)c1cccc(Br)c1`, which cell number change is on record?
Its cell number change is 22.5%.

And the AC50 [1]?
The AC50 was 0.112 µM [rising, full curve, poor fit].

Which cell number change does the source give for `Cc1cc(=O)oc2c(CN3CC(C)OC(C)C3)c(O)c(Cl)cc12` (configuration not stated) here?
The cell number change was 59.9%.

What about the AC50 [2] of the same compound?
Its AC50 is 1.3 µM [rising, partial curve, poor fit].

With `CN(C)CCCNC(=O)N1c2ccccc2Sc2ccccc21` as the compound, how does the cell number change read?
Its cell number change is 2.38%.

What does the source list for `Cc1ccc(Cl)cc1NC(=O)CSC(N)=O`?
cell number change: -35.3%; AC50 [2]: 32.6 µM [falling, single point]; AC50 [1]: 29.1 µM [falling, single point]

Which cell number change does the source give for `CC(CC(=O)NCCc1ccc(S(N)(=O)=O)cc1)c1ccccc1` (configuration not stated) here?
Its cell number change is 5.22%.

With `COc1ccc(C(=O)OCCCc2cc3ccccc3c(=O)o2)cc1` as the compound, how does the cell number change read?
The cell number change was -29.8%.

And the AC50 [1]?
The AC50 was 0.184 µM [falling, full curve, poor fit].

Which cell number change does the source give for `CC1CC(C)CN(C(=O)COC(=O)c2ccc3c(c2)OCO3)C1` (configuration not stated) here?
Its cell number change is 16.4%.

And the AC50 [1]?
The AC50 was 2.31 µM [rising, full curve].

With `CN(C)S(=O)(=O)c1cccc(-n2sc3ccccc3c2=O)c1` as the compound, how does the cell number change read?
The cell number change was -75.4%.

What about the AC50 [2] of the same compound?
Its AC50 is 13 µM [falling, partial curve, poor fit].

What about the AC50 [1] of the same compound?
Its AC50 is 25.9 µM [falling, partial curve, poor fit].

For `CC1(C)Cc2c(cnn2-c2ccc(F)cc2)C(NC(=O)CN2CCCC2=O)C1` (configuration not stated), which cell number change is on record?
The cell number change was 5.9%.

What about the AC50 [1] of the same compound?
Its AC50 is 29.1 µM [falling, single point].

Which results are given for `CC(C)COc1ccc(C(=O)CCN2CCCCC2)cc1`?
cell number change: -36.1%; AC50 [2]: 20.6 µM [falling, partial curve]; AC50 [1]: 0.731 µM [falling, full curve]

With `COc1cc(NC(=O)c2ccc([N+](=O)[O-])o2)ccc1NC(=O)c1cccs1` as the compound, how does the cell number change read?
Its cell number change is 3.56%.

And the AC50 [2]?
The AC50 was 0.00517 µM [falling, full curve, poor fit].

What about the AC50 [1] of the same compound?
The AC50 was 18.4 µM [falling, partial curve].

For `O=C(Nc1nccs1)c1ccc(Cl)c([N+](=O)[O-])c1`, which cell number change is on record?
The cell number change was -35.4%.

And the AC50 [1]?
The AC50 was 0.58 µM [falling, single point].

Which AC50 [2] does the source give for `Cc1cc(Nc2cccc(F)c2)nc(N2CCOCC2)n1` here?
The AC50 was 0.13 µM [rising, full curve, poor fit].

For `COC(=O)c1ccccc1NC(=O)C/C(C)=N/NC(=O)Cc1ccc(Cl)cc1`, which cell number change is on record?
The cell number change was 11.5%.

What about the AC50 [1] of the same compound?
Its AC50 is 6.51 µM [falling, single point].

Which results are given for `Cc1cc(C)cc(NC2=CC(=O)CC(c3ccco3)C2)c1` (configuration not stated)?
cell number change: 60%; AC50 [2]: 16.4 µM [rising, partial curve]

Which cell number change does the source give for `CCOc1ccc(-c2nnc(SCc3nnc(-c4ccccc4)o3)n2-c2ccccc2F)cc1` here?
Its cell number change is 31%.

What about the AC50 [2] of the same compound?
The AC50 was 29.1 µM [rising, single point].

And the AC50 [1]?
Its AC50 is 13 µM [rising, partial curve, poor fit].

With `COc1ccccc1NS(=O)(=O)c1cc2c3c(c1)CC(=O)N3CCC2` as the compound, how does the cell number change read?
The cell number change was 29.8%.

What about the AC50 [1] of the same compound?
The AC50 was 29.1 µM [falling, single point].

For `CCCCNC(=O)CSc1nccn1Cc1ccccc1`, which cell number change is on record?
The cell number change was -26.3%.

And the AC50 [1]?
Its AC50 is 16.4 µM [falling, single point].
